Laboratory results as given in publication PMC5228124.
No constants are given. Whether binding was seen depends on the method and setting. In cells and extracts the contact can be indirect. These calls come from enrichment with a bait or labelling near it, and not all partners need be listed.

By UniProt entry, the sequences of proteins in these tests, tags left out.
UniProt Q8BG40: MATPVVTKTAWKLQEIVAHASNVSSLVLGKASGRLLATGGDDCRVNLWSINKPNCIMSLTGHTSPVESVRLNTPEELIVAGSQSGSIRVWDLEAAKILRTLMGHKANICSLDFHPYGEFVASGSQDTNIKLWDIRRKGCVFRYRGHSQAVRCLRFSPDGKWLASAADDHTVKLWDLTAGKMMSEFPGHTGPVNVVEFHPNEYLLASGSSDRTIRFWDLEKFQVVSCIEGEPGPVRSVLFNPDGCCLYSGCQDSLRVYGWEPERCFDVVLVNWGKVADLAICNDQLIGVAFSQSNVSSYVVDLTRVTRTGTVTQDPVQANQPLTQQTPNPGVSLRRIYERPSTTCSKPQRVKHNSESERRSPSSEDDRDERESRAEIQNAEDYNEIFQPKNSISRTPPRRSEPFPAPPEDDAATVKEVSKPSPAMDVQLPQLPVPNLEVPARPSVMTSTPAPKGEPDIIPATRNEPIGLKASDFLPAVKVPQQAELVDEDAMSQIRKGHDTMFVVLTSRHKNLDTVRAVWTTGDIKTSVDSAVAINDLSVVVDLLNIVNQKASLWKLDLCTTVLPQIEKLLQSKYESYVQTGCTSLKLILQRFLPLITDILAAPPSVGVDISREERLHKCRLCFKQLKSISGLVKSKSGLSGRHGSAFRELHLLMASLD
UniProt E9Q7G0: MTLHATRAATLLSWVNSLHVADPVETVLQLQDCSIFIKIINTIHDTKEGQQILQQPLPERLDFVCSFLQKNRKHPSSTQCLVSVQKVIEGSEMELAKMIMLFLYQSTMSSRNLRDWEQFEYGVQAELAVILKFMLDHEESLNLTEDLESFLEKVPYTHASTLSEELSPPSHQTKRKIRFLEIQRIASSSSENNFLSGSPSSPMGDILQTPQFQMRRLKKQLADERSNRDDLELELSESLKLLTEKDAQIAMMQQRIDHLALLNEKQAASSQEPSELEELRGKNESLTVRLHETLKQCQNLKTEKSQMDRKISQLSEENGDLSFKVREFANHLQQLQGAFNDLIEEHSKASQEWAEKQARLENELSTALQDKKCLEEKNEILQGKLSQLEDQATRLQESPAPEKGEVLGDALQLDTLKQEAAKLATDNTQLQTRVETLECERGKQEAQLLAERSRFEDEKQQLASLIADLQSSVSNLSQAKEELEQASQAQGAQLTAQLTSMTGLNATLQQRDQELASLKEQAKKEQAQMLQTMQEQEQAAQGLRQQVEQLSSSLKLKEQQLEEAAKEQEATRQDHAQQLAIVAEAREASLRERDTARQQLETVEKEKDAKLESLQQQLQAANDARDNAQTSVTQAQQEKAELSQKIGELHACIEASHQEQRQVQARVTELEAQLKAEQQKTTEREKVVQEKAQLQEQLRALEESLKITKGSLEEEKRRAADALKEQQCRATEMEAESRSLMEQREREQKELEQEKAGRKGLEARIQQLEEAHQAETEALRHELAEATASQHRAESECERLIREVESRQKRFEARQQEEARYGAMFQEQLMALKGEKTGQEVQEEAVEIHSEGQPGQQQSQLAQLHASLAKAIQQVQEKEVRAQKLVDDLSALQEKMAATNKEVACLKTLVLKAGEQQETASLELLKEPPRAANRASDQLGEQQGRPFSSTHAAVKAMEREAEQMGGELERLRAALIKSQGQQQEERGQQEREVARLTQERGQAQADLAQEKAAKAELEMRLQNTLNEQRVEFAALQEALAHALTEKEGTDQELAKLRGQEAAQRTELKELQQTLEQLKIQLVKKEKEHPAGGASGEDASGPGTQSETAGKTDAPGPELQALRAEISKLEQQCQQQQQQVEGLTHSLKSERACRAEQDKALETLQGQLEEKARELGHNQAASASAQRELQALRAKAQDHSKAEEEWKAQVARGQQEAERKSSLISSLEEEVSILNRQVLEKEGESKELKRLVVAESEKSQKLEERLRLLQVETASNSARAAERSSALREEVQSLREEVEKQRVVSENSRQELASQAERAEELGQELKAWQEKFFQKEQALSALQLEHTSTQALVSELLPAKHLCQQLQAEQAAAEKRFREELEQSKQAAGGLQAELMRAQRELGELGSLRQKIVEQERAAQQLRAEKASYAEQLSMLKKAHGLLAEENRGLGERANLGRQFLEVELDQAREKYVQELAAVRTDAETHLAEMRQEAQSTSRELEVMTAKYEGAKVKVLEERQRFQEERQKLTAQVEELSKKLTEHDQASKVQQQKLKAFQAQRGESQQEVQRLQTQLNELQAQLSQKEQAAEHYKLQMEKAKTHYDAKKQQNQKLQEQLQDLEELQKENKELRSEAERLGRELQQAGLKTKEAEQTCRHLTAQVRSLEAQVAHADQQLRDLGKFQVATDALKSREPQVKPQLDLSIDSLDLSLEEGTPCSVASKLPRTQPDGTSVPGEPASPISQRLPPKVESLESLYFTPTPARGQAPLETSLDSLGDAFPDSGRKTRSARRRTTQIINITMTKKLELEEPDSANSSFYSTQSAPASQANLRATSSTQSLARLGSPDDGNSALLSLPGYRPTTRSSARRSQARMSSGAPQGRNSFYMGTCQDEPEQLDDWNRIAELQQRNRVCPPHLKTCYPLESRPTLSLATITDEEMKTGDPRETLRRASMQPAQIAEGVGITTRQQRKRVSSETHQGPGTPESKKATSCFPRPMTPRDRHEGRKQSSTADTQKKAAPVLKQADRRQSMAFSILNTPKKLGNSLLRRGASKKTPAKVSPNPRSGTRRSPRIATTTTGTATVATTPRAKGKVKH

Molecular target: katanin p80 subunit (KATNB1), endogenous in mouse brain (mouse (endogenous in mouse brain)) (UniProt Q8BG40)
Experiment: affinity purification with mass spectrometry; anti-p80 antibody cross-linked to protein G-Sepharose, mouse brain extract, 2 h, three washes, eluate analysed by LC-MS/MS

- binding: binds
Substance: NuMA (nuclear mitotic apparatus protein), endogenous mouse (from UniProt E9Q7G0 1-2094)
